Patent US5520901A, “Method for the recovery of iodine from an environment” (General Electric Company, priority 1993, dated 1996)

Tests used:
[1] = Recovery of iodine from treated phenolic resin with calcium hydroxide (unaccounted iodine)
[2] = Residual mercury in the solids after mercury removal and iodine recovery
[3] = Recovery of iodine from mercury-decontaminated phenolic resin with calcium sulfite (amount of iodine unaccounted for)
[4] = Recovery of iodine from treated phenolic resin with sodium sulfite (unrecovered iodine)

Question: With `[Ca+2].[OH-].[OH-]` [Ca(OH)2, calcium hydroxide] as the molecule, how does the unaccounted iodine ([1]; 0.2 g Ca(OH)2, 50 mL water, 65° C., 3 hours, before 0.165 g/g) read?
Answer: 0.07 g I per gram of phenolic resin

Question: And the “g Lost I/g Material” value ([1]; additive 4%, 3 hr, 65 °C, none 0.17, water 0.12)?
Answer: 0.06 g Lost I/g Material

Question: And the “g Lost I/g Material” value ([1]; additive 40%, 3 hr, 22 °C)?
Answer: 0.07 g Lost I/g Material

Question: What about the “g Lost I/g Material” value ([1]; additive 40%, 3 hr, 65 °C) of the same molecule?
Answer: 0.05 g Lost I/g Material

Question: And the “g Lost I/g Material” value ([1]; additive 40%, 21 hr, 65 °C)?
Answer: 0.06 g Lost I/g Material

Question: And the “mercury content of solids” value ([2]; after KI/I2 extraction and 0.2 g Ca(OH)2, 65° C., 3 hours, initially 371 ppm)?
Answer: 27 ppm

Question: Which “mercury content of solids” value ([2]; after KI/I2 extraction and 3.9 g calcium sulfite, 45° C., 16 hours, initially 225 ppm) does the source give for `O=S([O-])[O-].[Ca+2]` [Calcium Sulfite, calcium sulfite] here?
Answer: 30 ppm

Question: What about the “iodine unaccounted for after analysis of all solutions for iodine and iodide” value ([3]; 3.9 g CaSO3.2H2O, 50 mL water, 45° C., 16 hours, initial missing iodine 0.18 g/g) of the same molecule?
Answer: 0.03 g iodine/g phenolic resin

Question: What about the “g Lost I/g Material” value ([3]; 1 hr, 22 °C, 0.4 g CaSO3.2H2O/g material, liquid/solid ratio 5, untreated 0.197) of the same molecule?
Answer: 0.116 g Lost I/g Material

Question: What about the “g Lost I/g Material” value ([3]; 6 hr, 22 °C, 0.2 g/g, liquid/solid ratio 5) of the same molecule?
Answer: 0.070 g Lost I/g Material

Question: What about the “g Lost I/g Material” value ([3]; 6 hr, 22 °C, 0.4 g/g, liquid/solid ratio 2) of the same molecule?
Answer: 0.078 g Lost I/g Material

Question: And the “g Lost I/g Material” value ([3]; 6 hr, 22 °C, 0.4 g/g, liquid/solid ratio 5)?
Answer: 0.072 g Lost I/g Material

Question: What about the “g Lost I/g Material” value ([3]; 6 hr, 22 °C, 0.4 g/g, liquid/solid ratio 10) of the same molecule?
Answer: 0.080 g Lost I/g Material

Question: What about the “g Lost I/g Material” value ([3]; 6 hr, 22 °C, 1.0 g/g, liquid/solid ratio 5) of the same molecule?
Answer: 0.141 g Lost I/g Material

Question: And the “g Lost I/g Material” value ([3]; 6 hr, 45 °C, 0.4 g/g, liquid/solid ratio 5)?
Answer: 0.059 g Lost I/g Material

Question: And the “g Lost I/g Material” value ([3]; 6 hr, 65 °C, 0.4 g/g, liquid/solid ratio 5)?
Answer: 0.007 g Lost I/g Material

Question: What about the “g Lost I/g Material” value ([3]; 16 hr, 22 °C, 0.4 g/g, liquid/solid ratio 5) of the same molecule?
Answer: 0.073 g Lost I/g Material

Question: With `O=S([O-])[O-].[Na+].[Na+]` [Sodium Sulfite, sodium sulfite] as the molecule, how does the “g Lost I/g Material” value ([4]; Table 2: 0.5 hr, 22 °C, 0.1 M, ratio 10/1, water rinse) read?
Answer: 0.06 g Lost I/g Material

Question: And the “g Lost I/g Material” value ([4]; Table 2: 1 hr, 22 °C, 0.05 M, ratio 10/1, water rinse)?
Answer: 0.06 g Lost I/g Material

Question: And the “g Lost I/g Material” value ([4]; Table 2: 1 hr, 22 °C, 0.1 M, ratio 5/1, water rinse)?
Answer: 0.03 g Lost I/g Material

Question: What about the “g Lost I/g Material” value ([4]; Table 2: 1 hr, 22 °C, 0.1 M, ratio 10/1, no water rinse, untreated 0.13) of the same molecule?
Answer: 0.07 g Lost I/g Material

Question: What about the “g Lost I/g Material” value ([4]; Table 2: 1 hr, 22 °C, 0.1 M, ratio 10/1, water rinse) of the same molecule?
Answer: 0.07 g Lost I/g Material

Question: What about the “g Lost I/g Material” value ([4]; Table 2: 1 hr, 22 °C, 0.1 M, ratio 20/1, water rinse) of the same molecule?
Answer: 0.04 g Lost I/g Material

Question: What about the “g Lost I/g Material” value ([4]; Table 2: 1 hr, 22 °C, 0.5 M, ratio 10/1, water rinse) of the same molecule?
Answer: < 0.01 g Lost I/g Material

Question: And the “g Lost I/g Material” value ([4]; Table 2: 1 hr, 44 °C, 0.1 M, ratio 10/1, water rinse)?
Answer: 0.03 g Lost I/g Material

Question: What about the “g Lost I/g Material” value ([4]; Table 2: 4 hr, 22 °C, 0.1 M, ratio 10/1, water rinse) of the same molecule?
Answer: 0.04 g Lost I/g Material

Question: What about the “g Lost I/g Material” value ([4]; Table 3: 1 hr, 22 °C, 0.1 M, ratio 5/1, water rinse) of the same molecule?
Answer: 0.05 g Lost I/g Material

Question: What about the “g Lost I/g Material” value ([4]; Table 3: 1 hr, 22 °C, 0.5 M, ratio 5/1, water rinse) of the same molecule?
Answer: 0.05 g Lost I/g Material

Question: What about the “g Lost I/g Material” value ([4]; Table 3: 1 hr, 45 °C, 0.1 M, ratio 5/1, water rinse) of the same molecule?
Answer: 0.06 g Lost I/g Material

Question: What about the “g Lost I/g Material” value ([4]; Table 3: 1 hr, 45 °C, 0.5 M, ratio 5/1, water rinse) of the same molecule?
Answer: 0.04 g Lost I/g Material

Question: What about the “g Lost I/g Material” value ([4]; Table 3: 16 hr, 22 °C, 0.1 M, ratio 5/1, water rinse) of the same molecule?
Answer: 0.06 g Lost I/g Material

Question: What about the “g Lost I/g Material” value ([4]; Table 3: 16 hr, 22 °C, 0.5 M, ratio 5/1, water rinse) of the same molecule?
Answer: 0.03 g Lost I/g Material

Question: And the “g Lost I/g Material” value ([4]; Table 3: 16 hr, 45 °C, 0.1 M, ratio 5/1, water rinse)?
Answer: 0.04 g Lost I/g Material

Question: And the “g Lost I/g Material” value ([4]; Table 3: 16 hr, 45 °C, 0.5 M, ratio 5/1, untreated 0.16)?
Answer: 0.03 g Lost I/g Material
